The list shows a part of the results. Most values lie at the level of the controls, where differences are scatter.
What follows are targets tested with CN[C@@H]1C[C@H]2O[C@@](C)([C@@H]1OC)n1c3ccccc3c3c4c(c5c6ccccc6n2c5c31)C(=O)NC4 [staurosporine] (assay: log2 fold change of tryptic peptide abundance, ligand vs vehicle (limited proteolysis) (log2 ratio); higher = more trypsin-susceptible (destabilized)). Settings: ligand concentration: 20 uM; sample: K562 cleared lysate; digestion: 4 min, 22 C (HT-PELSA RT4min, Orbitrap Astral).

By UniProt entry, the sequences of proteins in these tests, tags left out. Where a name states a change or a piece, a line headed by the entry shows the natural chain unless it says otherwise.
UniProt Q86VX9: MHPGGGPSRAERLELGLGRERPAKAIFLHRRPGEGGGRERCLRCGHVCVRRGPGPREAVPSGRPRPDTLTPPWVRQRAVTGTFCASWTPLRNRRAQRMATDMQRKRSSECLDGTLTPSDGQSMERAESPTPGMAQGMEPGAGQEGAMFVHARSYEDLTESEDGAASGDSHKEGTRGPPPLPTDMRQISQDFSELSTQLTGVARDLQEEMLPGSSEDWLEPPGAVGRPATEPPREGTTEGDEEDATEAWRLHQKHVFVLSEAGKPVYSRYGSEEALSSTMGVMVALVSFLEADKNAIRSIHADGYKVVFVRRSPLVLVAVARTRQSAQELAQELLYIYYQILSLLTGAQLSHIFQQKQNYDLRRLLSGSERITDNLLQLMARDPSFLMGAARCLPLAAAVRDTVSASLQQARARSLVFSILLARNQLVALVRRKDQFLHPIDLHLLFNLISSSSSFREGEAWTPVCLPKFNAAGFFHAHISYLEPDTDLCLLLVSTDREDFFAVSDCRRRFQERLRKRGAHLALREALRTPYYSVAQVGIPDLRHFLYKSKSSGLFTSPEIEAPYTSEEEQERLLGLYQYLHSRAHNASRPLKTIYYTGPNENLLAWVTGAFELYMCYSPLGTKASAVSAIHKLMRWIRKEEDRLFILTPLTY
UniProt Q86UP2: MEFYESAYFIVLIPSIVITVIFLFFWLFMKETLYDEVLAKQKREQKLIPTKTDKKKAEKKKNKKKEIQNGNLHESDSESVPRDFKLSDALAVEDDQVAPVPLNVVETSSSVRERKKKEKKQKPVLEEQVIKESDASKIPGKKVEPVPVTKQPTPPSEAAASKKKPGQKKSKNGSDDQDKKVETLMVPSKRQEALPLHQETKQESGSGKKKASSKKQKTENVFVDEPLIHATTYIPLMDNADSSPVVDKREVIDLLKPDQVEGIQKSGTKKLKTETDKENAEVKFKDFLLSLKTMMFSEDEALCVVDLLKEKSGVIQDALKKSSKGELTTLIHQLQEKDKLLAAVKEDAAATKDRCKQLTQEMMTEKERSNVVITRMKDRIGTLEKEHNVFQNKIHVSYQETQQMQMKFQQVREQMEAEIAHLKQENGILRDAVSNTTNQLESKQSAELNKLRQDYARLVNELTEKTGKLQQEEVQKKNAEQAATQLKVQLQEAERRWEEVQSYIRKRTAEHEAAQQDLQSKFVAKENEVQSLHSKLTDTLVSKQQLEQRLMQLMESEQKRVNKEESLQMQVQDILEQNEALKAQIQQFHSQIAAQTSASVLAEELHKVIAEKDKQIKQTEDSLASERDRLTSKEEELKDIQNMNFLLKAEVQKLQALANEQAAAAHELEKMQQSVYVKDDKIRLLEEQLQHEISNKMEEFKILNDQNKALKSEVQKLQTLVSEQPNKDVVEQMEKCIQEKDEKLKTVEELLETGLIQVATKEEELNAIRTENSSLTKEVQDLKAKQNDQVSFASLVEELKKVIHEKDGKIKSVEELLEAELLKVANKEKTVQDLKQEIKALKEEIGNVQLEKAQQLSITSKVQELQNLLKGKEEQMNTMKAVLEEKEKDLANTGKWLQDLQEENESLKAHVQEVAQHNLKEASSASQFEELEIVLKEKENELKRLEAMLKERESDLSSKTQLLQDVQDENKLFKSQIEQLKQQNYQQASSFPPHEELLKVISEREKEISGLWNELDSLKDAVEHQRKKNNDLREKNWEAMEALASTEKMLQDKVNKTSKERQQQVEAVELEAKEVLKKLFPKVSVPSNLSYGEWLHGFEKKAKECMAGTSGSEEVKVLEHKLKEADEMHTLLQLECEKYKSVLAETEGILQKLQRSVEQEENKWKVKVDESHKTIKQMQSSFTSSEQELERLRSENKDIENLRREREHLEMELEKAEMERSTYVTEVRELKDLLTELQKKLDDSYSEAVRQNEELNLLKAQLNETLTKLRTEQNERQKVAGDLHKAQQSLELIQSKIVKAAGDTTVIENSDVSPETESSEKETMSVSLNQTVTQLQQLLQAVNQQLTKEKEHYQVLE
UniProt Q86UA1: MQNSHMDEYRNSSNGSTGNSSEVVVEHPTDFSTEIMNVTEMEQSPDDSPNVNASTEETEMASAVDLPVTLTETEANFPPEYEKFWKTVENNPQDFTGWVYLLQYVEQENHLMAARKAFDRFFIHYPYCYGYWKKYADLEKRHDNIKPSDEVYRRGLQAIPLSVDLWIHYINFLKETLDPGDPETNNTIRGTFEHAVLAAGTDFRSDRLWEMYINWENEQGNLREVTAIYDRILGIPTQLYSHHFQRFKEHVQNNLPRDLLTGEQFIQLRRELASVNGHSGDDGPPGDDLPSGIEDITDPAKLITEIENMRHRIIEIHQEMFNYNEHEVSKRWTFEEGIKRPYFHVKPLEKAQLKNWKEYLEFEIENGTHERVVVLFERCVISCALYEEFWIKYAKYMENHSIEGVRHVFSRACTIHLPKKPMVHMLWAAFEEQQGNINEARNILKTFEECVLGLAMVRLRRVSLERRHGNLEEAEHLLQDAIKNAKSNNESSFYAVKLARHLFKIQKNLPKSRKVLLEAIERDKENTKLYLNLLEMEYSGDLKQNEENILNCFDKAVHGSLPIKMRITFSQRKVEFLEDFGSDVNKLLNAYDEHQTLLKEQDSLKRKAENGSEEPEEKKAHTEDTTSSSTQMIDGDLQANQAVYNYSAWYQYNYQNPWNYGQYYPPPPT
UniProt Q7L8S5: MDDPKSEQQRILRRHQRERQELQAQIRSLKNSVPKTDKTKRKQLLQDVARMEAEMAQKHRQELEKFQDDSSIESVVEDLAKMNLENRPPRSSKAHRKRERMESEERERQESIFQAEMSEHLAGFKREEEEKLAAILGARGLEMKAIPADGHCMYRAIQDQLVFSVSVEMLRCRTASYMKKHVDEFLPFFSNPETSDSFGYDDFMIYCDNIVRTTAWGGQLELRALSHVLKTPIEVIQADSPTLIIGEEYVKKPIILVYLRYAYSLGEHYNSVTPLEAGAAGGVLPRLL
UniProt Q7L0Y3: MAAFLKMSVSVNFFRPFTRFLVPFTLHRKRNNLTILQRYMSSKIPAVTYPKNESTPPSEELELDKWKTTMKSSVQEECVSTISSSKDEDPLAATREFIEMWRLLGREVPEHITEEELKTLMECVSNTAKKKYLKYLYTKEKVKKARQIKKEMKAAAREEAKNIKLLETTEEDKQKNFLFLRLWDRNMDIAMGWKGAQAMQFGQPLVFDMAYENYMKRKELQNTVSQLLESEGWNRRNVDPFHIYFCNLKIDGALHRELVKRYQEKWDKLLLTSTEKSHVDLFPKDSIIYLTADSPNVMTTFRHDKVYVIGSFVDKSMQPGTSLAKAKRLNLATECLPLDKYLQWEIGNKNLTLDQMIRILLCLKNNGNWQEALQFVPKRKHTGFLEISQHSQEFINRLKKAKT
UniProt Q75N03: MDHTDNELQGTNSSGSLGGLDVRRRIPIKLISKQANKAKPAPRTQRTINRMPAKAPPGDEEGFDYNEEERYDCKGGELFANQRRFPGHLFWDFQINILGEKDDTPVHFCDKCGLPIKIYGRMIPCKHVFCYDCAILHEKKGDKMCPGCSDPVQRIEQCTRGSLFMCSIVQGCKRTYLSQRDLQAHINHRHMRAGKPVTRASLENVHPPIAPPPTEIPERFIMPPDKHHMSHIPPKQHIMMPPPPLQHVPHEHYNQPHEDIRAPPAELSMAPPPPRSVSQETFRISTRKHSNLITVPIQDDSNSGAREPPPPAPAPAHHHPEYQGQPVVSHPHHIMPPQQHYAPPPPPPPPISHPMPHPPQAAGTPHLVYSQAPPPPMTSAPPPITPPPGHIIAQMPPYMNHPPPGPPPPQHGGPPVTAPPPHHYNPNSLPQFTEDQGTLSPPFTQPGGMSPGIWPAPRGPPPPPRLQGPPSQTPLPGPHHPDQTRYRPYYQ
UniProt Q7LBC6: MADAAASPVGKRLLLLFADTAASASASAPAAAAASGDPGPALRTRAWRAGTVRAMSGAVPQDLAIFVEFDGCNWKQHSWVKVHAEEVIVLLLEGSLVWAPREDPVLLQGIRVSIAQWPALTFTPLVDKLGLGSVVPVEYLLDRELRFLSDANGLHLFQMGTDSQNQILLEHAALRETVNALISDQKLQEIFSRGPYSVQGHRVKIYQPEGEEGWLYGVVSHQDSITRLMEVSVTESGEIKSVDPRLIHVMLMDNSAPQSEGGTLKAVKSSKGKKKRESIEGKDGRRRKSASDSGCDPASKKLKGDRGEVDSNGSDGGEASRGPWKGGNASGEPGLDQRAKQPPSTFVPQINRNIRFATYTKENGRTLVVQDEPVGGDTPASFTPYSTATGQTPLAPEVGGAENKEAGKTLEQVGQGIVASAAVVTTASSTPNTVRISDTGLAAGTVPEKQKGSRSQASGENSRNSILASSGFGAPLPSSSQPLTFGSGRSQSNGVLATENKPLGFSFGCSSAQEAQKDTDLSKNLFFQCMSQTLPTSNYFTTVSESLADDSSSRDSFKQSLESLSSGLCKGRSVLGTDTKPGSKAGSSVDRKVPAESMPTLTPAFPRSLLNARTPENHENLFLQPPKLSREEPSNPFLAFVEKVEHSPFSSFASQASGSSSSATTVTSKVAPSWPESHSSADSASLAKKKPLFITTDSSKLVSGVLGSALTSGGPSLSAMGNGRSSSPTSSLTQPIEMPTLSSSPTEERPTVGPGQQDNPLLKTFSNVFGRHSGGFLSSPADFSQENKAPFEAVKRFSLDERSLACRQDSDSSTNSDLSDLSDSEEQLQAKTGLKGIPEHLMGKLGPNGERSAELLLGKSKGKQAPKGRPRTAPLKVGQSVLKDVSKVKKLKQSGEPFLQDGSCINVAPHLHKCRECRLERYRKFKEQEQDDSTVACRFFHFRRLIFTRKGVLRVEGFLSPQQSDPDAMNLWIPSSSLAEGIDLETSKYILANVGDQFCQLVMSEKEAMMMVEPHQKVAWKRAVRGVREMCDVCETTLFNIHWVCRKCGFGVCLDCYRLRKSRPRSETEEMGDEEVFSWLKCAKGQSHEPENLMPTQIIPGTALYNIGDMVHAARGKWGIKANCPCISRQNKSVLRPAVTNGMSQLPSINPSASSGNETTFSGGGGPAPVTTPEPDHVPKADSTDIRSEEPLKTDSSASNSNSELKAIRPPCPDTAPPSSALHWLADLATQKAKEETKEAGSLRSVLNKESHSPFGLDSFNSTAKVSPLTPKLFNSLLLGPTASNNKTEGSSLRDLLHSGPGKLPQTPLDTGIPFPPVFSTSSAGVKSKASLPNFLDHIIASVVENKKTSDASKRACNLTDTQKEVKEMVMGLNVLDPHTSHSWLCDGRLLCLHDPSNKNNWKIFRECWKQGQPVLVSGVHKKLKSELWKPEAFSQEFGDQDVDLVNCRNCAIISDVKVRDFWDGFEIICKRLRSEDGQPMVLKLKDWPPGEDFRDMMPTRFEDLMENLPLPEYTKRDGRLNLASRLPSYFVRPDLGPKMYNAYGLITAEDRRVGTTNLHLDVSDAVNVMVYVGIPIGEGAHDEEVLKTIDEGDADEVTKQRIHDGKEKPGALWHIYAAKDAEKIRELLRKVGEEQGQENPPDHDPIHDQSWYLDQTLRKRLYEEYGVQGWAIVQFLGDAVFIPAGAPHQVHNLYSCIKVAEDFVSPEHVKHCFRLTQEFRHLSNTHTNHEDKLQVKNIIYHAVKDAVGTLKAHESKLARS
UniProt Q7Z2E3: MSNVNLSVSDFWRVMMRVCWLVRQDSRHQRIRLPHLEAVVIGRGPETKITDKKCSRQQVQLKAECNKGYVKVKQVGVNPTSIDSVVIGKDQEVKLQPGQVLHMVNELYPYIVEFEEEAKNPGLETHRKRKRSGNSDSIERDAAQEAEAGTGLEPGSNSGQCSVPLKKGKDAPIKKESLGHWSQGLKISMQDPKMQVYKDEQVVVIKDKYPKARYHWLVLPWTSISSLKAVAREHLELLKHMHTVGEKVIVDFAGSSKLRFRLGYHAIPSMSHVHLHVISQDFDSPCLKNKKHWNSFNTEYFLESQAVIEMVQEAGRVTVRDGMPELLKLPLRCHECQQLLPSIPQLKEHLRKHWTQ
UniProt Q7LDG7: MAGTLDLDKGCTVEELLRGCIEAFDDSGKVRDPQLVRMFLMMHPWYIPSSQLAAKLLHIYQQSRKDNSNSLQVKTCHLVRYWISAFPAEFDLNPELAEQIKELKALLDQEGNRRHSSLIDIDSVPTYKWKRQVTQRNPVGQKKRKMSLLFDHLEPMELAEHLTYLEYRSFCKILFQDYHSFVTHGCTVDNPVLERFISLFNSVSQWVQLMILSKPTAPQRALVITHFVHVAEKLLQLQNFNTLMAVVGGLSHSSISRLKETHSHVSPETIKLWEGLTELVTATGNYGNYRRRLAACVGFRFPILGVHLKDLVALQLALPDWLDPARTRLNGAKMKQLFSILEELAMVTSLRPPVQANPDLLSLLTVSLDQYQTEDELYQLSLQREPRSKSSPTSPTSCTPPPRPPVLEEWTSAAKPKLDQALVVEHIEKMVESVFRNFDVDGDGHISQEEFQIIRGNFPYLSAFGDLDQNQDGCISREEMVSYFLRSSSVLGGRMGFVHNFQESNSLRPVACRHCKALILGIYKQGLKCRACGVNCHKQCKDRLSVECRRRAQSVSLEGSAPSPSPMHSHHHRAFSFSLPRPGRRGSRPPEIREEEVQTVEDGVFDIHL

| Target | log2 fold change |
| --- | --- |
| MON1A (peptide sequence: SYEDLTESEDGAASGDSHK, peptide start residue: 153) (UniProt Q86VX9) | -0.31 |
| C15orf39 (peptide sequence: TNFHSSVAFMFR, peptide start residue: 641) (UniProt Q6ZRI6) | -0.536 |
| UniProt Q71F23 (peptide sequence: AAIATFYVNVK, peptide start residue: 276) | -0.211 |
| KTN1 (peptide sequence: QNDQVSFASLVEELKK, peptide start residue: 786) (UniProt Q86UP2) | 0.281 |
| LARP4 (peptide sequence: HNPTVTGHQEQTYLQK, peptide start residue: 413) (UniProt Q71RC2) | -0.108 |
| DTX2 (peptide sequence: TASVFGTHQAFAPYNKPSLSGAR, peptide start residue: 234) (UniProt Q86UW9) | -0.141 |
| PRPF39 (peptide sequence: ILGIPTQLYSHHFQR, peptide start residue: 232) (UniProt Q86UA1) | 0.547 |
| UniProt Q6ZVD8 (peptide sequence: CSLHPTPTSGLFQR, peptide start residue: 1118) | -0.0628 |
| TICRR (peptide sequence: SHSVSAVDGLEDKLDNFKK, peptide start residue: 936) (UniProt Q7Z2Z1) | -0.582 |
| UniProt Q7L8S5 (peptide sequence: RERMESEER, peptide start residue: 98) | -0.0615 |
| C5orf24 (peptide sequence: VSPGRPPGSIK, peptide start residue: 136) (UniProt Q7Z6I8) | -0.326 |
| UniProt Q7Z624 (peptide sequence: ASLVDAIKR, peptide start residue: 241) | 0.492 |
| KBTBD6 (peptide sequence: YGDLLYK, peptide start residue: 303) (UniProt Q86V97) | 0.0927 |
| UBN2 (peptide sequence: TLLCNLVEIK, peptide start residue: 611) (UniProt Q6ZU65) | 0.213 |
| UniProt Q7L0Y3 (peptide sequence: YLYTKEK, peptide start residue: 135) | 0.643 |
| SRCAP (peptide sequence: AEDEEDIR, peptide start residue: 2248) (UniProt Q6ZRS2) | -0.327 |
| CBLL1 (peptide sequence: GGELFANQR, peptide start residue: 75) (UniProt Q75N03) | -0.173 |
| MOB3B (peptide sequence: TCPVMSGGPK, peptide start residue: 86) (UniProt Q86TA1) | 0.17 |
| UniProt Q7LBC6 (peptide sequence: LVSGVLGSALTSGGPSLSAMGNGR, peptide start residue: 701) | 0.596 |

Quoted from the listing:
C5orf24 (peptide sequence: VSPGRPPGSIK, peptide start residue: 136) (UniProt Q7Z6I8) | log2 fold change: -0.326
TICRR (peptide sequence: SHSVSAVDGLEDKLDNFKK, peptide start residue: 936) (UniProt Q7Z2Z1) | log2 fold change: -0.582
LARP4 (peptide sequence: HNPTVTGHQEQTYLQK, peptide start residue: 413) (UniProt Q71RC2) | log2 fold change: -0.108

Following part:

| Target | log2 fold change |
| --- | --- |
| ZFHX4 (peptide sequence: QQQEQQQKPVQAK, peptide start residue: 3287) (UniProt Q86UP3) | -0.256 |
| APTX (peptide sequence: IRLPHLEAVVIGR, peptide start residue: 31) (UniProt Q7Z2E3) | 0.31 |
| BCL9L (peptide sequence: SVSVDSGEQR, peptide start residue: 116) (UniProt Q86UU0) | 0.229 |
| DOK3 (peptide sequence: LESWEVR, peptide start residue: 99) (UniProt Q7L591) | 0.248 |
| UniProt Q6ZTQ4 (peptide sequence: NIPLSYFLISPPK, peptide start residue: 167) | 0.16 |
| MRPL52 (peptide sequence: QENALKPK, peptide start residue: 105) (UniProt Q86TS9) | 0.185 |
| STRADA (peptide sequence: SNLSMISHGQR, peptide start residue: 216) (UniProt Q7RTN6) | -0.311 |
| MFSD6 (peptide sequence: AQPVPCETHSDPSR, peptide start residue: 738) (UniProt Q6ZSS7) | -0.205 |
| UniProt Q86TM3 (peptide sequence: IQIINGESEAK, peptide start residue: 82) | 0.152 |
| UniProt Q7Z6J8 (peptide sequence: RVNSFQVAFLKM, peptide start residue: 378) | -0.83 |
| UniProt Q7RTT5 (peptide sequence: ISYVYMK, peptide start residue: 46) | -0.294 |
| RASGRP2 (peptide sequence: FPILGVHLK, peptide start residue: 301) (UniProt Q7LDG7) | 0.532 |
| UniProt Q70EK8 (peptide sequence: ASAQIISSSK, peptide start residue: 527) | -0.14 |
| KCTD9 (peptide sequence: ANLEGANLK, peptide start residue: 303) (UniProt Q7L273) | -0.0842 |
| ZNF627 (peptide sequence: NISHIPERLCESK, peptide start residue: 62) (UniProt Q7L945) | 0.124 |
| RABEPK (peptide sequence: YEHASFIPSCTPDR, peptide start residue: 87) (UniProt Q7Z6M1) | -0.525 |
| TECPR1 (peptide sequence: NATGNSASGLGAGR, peptide start residue: 439) (UniProt Q7Z6L1) | -0.00555 |
| CXXC5 (peptide sequence: SGAVASLLSK, peptide start residue: 138) (UniProt Q7LFL8) | 0.146 |
| ENOSF1 (peptide sequence: FKPLWIEEPTSPDDILGHATISK, peptide start residue: 270) (UniProt Q7L5Y1) | 0.192 |

Reference: the supplement of paper PMC12819154, “High-throughput peptide-centric local stability assay extends protein–ligand identification to membrane proteins, tissues and bacteria” (Nature Structural & Molecular Biology, 2025)
